This assay concerns the target His6-DDB1 (UniProt Q16531). The assay is described as follows: co-purification (His-Trap, anti-FLAG affinity gel, SEC); His6-DDB1 and DDB2-Flag co-expressed in Sf9 cells, purified in turn on Ni2+ His-Trap, anti-FLAG M2 gel and Superdex 200.

The chains behind the UniProt entries cited, without tags or fusion partners.
UniProt Q16531: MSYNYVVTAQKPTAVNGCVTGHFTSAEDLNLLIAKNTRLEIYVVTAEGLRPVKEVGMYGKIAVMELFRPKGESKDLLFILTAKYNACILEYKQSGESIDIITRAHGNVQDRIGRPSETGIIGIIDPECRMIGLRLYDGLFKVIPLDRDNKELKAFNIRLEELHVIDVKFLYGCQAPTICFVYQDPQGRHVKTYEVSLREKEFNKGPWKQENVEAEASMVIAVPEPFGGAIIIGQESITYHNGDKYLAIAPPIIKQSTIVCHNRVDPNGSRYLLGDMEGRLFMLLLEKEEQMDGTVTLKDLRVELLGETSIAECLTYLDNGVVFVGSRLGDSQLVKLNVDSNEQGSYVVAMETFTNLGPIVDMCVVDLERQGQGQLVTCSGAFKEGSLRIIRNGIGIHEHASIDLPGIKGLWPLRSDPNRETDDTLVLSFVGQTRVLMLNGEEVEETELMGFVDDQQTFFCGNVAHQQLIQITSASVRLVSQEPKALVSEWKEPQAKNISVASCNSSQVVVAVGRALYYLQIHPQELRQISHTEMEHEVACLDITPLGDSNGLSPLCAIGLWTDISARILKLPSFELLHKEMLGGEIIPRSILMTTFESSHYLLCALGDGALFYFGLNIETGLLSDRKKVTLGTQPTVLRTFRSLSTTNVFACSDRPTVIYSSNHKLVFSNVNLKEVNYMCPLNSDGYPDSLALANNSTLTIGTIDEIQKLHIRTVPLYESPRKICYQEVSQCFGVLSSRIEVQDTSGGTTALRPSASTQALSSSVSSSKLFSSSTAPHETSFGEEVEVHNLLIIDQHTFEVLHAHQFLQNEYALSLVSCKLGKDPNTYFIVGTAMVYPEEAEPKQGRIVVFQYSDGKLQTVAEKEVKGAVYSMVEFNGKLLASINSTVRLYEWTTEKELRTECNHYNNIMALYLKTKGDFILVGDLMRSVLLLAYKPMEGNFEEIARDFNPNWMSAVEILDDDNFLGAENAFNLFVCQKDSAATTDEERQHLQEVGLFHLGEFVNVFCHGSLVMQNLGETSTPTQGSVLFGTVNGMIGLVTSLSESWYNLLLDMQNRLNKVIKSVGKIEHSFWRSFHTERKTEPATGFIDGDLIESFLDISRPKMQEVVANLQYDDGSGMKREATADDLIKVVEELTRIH
UniProt Q92466: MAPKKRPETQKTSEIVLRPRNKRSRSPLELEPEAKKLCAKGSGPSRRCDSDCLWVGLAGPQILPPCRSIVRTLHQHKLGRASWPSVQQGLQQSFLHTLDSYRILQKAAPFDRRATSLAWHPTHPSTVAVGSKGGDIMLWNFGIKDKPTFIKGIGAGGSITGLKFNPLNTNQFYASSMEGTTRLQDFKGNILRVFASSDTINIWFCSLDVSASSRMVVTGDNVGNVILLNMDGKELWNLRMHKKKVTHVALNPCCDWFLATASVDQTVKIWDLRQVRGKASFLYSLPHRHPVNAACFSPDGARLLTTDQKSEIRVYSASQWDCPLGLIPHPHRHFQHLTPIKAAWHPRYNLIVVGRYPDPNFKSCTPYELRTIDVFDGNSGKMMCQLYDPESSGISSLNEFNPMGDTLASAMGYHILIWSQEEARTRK

These are yes or no findings as the source states them, for the method shown. Some results given as binding are weak or reduced against the parent protein; the word gives no strength.

Our source for the binding values is article PMC8373069.

DDB2-Flag (from UniProt Q92466 1-427): the binding entry is reported as “binds”.
